PubChem BioAssay AID1224828 | NIAID | 2016

Screen: 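Find genes required for NF-kappaB p65 moving into the nucleus after LPS in mouse macrophages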 (primary screen)
System: mouse RAW264.7 G9 macrophage reporter cells (GFP-p65, Tnf promoter-mCherry)
Reagent: siRNA pool against mouse genes, 100 nM
Duration: 2 days siRNA transfection, then 40 min LPS before fixation
Challenge: LPS (Salmonella minnesota R595) at 10 ng/ml
Read-out: 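Microscopy ratio of nuclear to perinuclear-ring GFP-p65 signal, scaled to the plate median; gene score is the average of two replicate robust z-scores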
Direction: p65 translocation robust z-score: higher = more nuclear NF-kappaB p65 after LPS than the plate median; nuclear/cytoplasmic p65 ratio: higher = more nuclear NF-kappaB p65
Hit rule: 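Called active when z exceeds 3.3 or falls under -1.56 (median of Tlr4 controls), giving activity score of at least 50; no calls for control wells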
Meaning of the calls: active = hit (p65 shift raised or lowered); inactive = no clear change
This is one part, drawn at random, of about 17,000 reagents. In the full data, 762 (4.5%) got an active call. 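Active calls include both raised and lowered p65 entry, mostly lowered; wells with fewer than 50 cells lack a z-score.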 The raw values are shown without normalisation. A number with no mark means an inactive call.

Vsir (V-set immunoregulatory receptor) scored nuclear/cytoplasmic p65 ratio, rep 1 = 1.03; nuclear/cytoplasmic p65 ratio, rep 2 = 1.33; low cell count flag fewer than 50 cells per well; well left out of scoring. Drg2 (developmentally regulated GTP binding protein 2) gave p65 translocation robust z-score -0.04; nuclear/cytoplasmic p65 ratio, rep 1 = 1.53; nuclear/cytoplasmic p65 ratio, rep 2 = 1.32; low cell count flag enough cells to score. Silencing of Pde12 (phosphodiesterase 12) came out at: p65 translocation robust z-score 0.7; nuclear/cytoplasmic p65 ratio, rep 1 = 1.45; nuclear/cytoplasmic p65 ratio, rep 2 = 1.55; low cell count flag enough cells to score. Depletion of Fkbp8 (FK506 binding protein 8) gave: p65 translocation robust z-score -0.5; nuclear/cytoplasmic p65 ratio, rep 1 = 1.32; nuclear/cytoplasmic p65 ratio, rep 2 = 1.35; low cell count flag enough cells to score. For Chrna3 (cholinergic receptor, nicotinic, alpha polypeptide 3) the deposit lists p65 translocation robust z-score -2.05 (active); nuclear/cytoplasmic p65 ratio, rep 1 = 1.2; nuclear/cytoplasmic p65 ratio, rep 2 = 1.12; low cell count flag enough cells to score. After knock-down of Malt1 (MALT1 paracaspase), the record shows p65 translocation robust z-score 0.48; nuclear/cytoplasmic p65 ratio, rep 1 = 1.71; nuclear/cytoplasmic p65 ratio, rep 2 = 1.44; low cell count flag enough cells to score.

For Drc5 (dynein regulatory complex subunit 5) the deposit lists p65 translocation robust z-score -1.82 (active); nuclear/cytoplasmic p65 ratio, rep 1 = 1.07; nuclear/cytoplasmic p65 ratio, rep 2 = 1.05; low cell count flag enough cells to score. Silencing of 1700006J14Rik (RIKEN cDNA 1700006J14 gene) resulted in: nuclear/cytoplasmic p65 ratio, rep 1 = 1.34; nuclear/cytoplasmic p65 ratio, rep 2 = 1.43; low cell count flag fewer than 50 cells per well; well left out of scoring. For Ppp2r5d (protein phosphatase 2, regulatory subunit B', delta) the deposit lists p65 translocation robust z-score -0.21; nuclear/cytoplasmic p65 ratio, rep 1 = 1.44; nuclear/cytoplasmic p65 ratio, rep 2 = 1.41; low cell count flag enough cells to score. Knock-down of Zfp219 (zinc finger protein 219) came out at: p65 translocation robust z-score -0.74; nuclear/cytoplasmic p65 ratio, rep 1 = 1.3; nuclear/cytoplasmic p65 ratio, rep 2 = 1.18; low cell count flag enough cells to score. With knock-down of V1ra8 (vomeronasal 1 receptor, A8), the screen gave p65 translocation robust z-score 1.4; nuclear/cytoplasmic p65 ratio, rep 1 = 1.56; nuclear/cytoplasmic p65 ratio, rep 2 = 1.39; low cell count flag enough cells to score. Apoc2 (apolipoprotein C2) gave p65 translocation robust z-score 0.88; nuclear/cytoplasmic p65 ratio, rep 1 = 1.81; nuclear/cytoplasmic p65 ratio, rep 2 = 1.56; low cell count flag enough cells to score.

After knock-down of Prap1 (proline-rich acidic protein 1), the record shows nuclear/cytoplasmic p65 ratio, rep 1 = 1.13; nuclear/cytoplasmic p65 ratio, rep 2 = 1.06; low cell count flag fewer than 50 cells per well; well left out of scoring. Knock-down of Trim28 (tripartite motif-containing 28) resulted in: p65 translocation robust z-score 0.76; nuclear/cytoplasmic p65 ratio, rep 1 = 1.55; nuclear/cytoplasmic p65 ratio, rep 2 = 1.67; low cell count flag enough cells to score. With knock-down of Adamts2 (ADAM metallopeptidase with thrombospondin type 1 motif 2), the screen gave p65 translocation robust z-score -0.7; nuclear/cytoplasmic p65 ratio, rep 1 = 1.5; nuclear/cytoplasmic p65 ratio, rep 2 = 1.53; low cell count flag enough cells to score. Haglr (Hoxd antisense growth associated long non-coding RNA) showed p65 translocation robust z-score 1.01; nuclear/cytoplasmic p65 ratio, rep 1 = 1.54; nuclear/cytoplasmic p65 ratio, rep 2 = 1.71; low cell count flag enough cells to score. Depletion of Ager (advanced glycosylation end product-specific receptor) came out at: p65 translocation robust z-score -0.25; nuclear/cytoplasmic p65 ratio, rep 1 = 1.5; nuclear/cytoplasmic p65 ratio, rep 2 = 1.66; low cell count flag enough cells to score. Asb6 (ankyrin repeat and SOCS box-containing 6) gave p65 translocation robust z-score -0.53; nuclear/cytoplasmic p65 ratio, rep 1 = 1.4; nuclear/cytoplasmic p65 ratio, rep 2 = 1.56; low cell count flag enough cells to score.

For Tmem171 (transmembrane protein 171), the values are nuclear/cytoplasmic p65 ratio, rep 1 = 1.48; nuclear/cytoplasmic p65 ratio, rep 2 = 1.65; low cell count flag fewer than 50 cells per well; well left out of scoring. Depletion of Ppp3r1 resulted in: p65 translocation robust z-score -1.02; nuclear/cytoplasmic p65 ratio, rep 1 = 1.27; nuclear/cytoplasmic p65 ratio, rep 2 = 1.35; low cell count flag enough cells to score. Against Prop1 (paired like homeodomain factor 1), the values are p65 translocation robust z-score -0.4; nuclear/cytoplasmic p65 ratio, rep 1 = 1.48; nuclear/cytoplasmic p65 ratio, rep 2 = 1.32; low cell count flag enough cells to score. Depletion of Tdp2 (tyrosyl-DNA phosphodiesterase 2) resulted in: p65 translocation robust z-score -0.14; nuclear/cytoplasmic p65 ratio, rep 1 = 1.51; nuclear/cytoplasmic p65 ratio, rep 2 = 1.55; low cell count flag enough cells to score. Depletion of Ubl5 (ubiquitin-like 5) came out at: p65 translocation robust z-score -1.32; nuclear/cytoplasmic p65 ratio, rep 1 = 1.44; nuclear/cytoplasmic p65 ratio, rep 2 = 1.21; low cell count flag enough cells to score. Cptp (ceramide-1-phosphate transfer protein) gave p65 translocation robust z-score 0.48; nuclear/cytoplasmic p65 ratio, rep 1 = 1.74; nuclear/cytoplasmic p65 ratio, rep 2 = 1.82; low cell count flag enough cells to score.

For Tmem270 (transmembrane protein 270) the deposit lists p65 translocation robust z-score -1.22; nuclear/cytoplasmic p65 ratio, rep 1 = 1.37; nuclear/cytoplasmic p65 ratio, rep 2 = 1.26; low cell count flag enough cells to score. Pbld1 (phenazine biosynthesis-like protein domain containing 1) scored p65 translocation robust z-score -0.98; nuclear/cytoplasmic p65 ratio, rep 1 = 1.41; nuclear/cytoplasmic p65 ratio, rep 2 = 1.31; low cell count flag enough cells to score. With knock-down of Parp1 (poly (ADP-ribose) polymerase family, member 1), the record shows p65 translocation robust z-score 0.45; nuclear/cytoplasmic p65 ratio, rep 1 = 1.56; nuclear/cytoplasmic p65 ratio, rep 2 = 1.81; low cell count flag enough cells to score.

Reformatted: results already given
{"gene": "1700006J14Rik (RIKEN cDNA 1700006J14 gene)", "nuclear/cytoplasmic p65 ratio, rep 1": 1.34, "nuclear/cytoplasmic p65 ratio, rep 2": 1.43, "low cell count flag": "fewer than 50 cells per well; well left out of scoring"}
{"gene": "Ppp2r5d (protein phosphatase 2, regulatory subunit B', delta)", "p65 translocation robust z-score": -0.21, "nuclear/cytoplasmic p65 ratio, rep 1": 1.44, "nuclear/cytoplasmic p65 ratio, rep 2": 1.41, "low cell count flag": "enough cells to score"}
{"gene": "Zfp219 (zinc finger protein 219)", "p65 translocation robust z-score": -0.74, "nuclear/cytoplasmic p65 ratio, rep 1": 1.3, "nuclear/cytoplasmic p65 ratio, rep 2": 1.18, "low cell count flag": "enough cells to score"}
{"gene": "V1ra8 (vomeronasal 1 receptor, A8)", "p65 translocation robust z-score": 1.4, "nuclear/cytoplasmic p65 ratio, rep 1": 1.56, "nuclear/cytoplasmic p65 ratio, rep 2": 1.39, "low cell count flag": "enough cells to score"}
